Source: patent US4208410A, “Dibenzo[d,g][1,3,6]dioxazocine derivatives” (priority 1977, dated 1980)

Tested on: mice
Assay: Local anaesthetic activity (Acta Chirurg. Scand. 116, 351 (1958))
Format: in vivo
Procedure: In order to observe the local anaesthetic activity of the instant compounds 0.25% and 0.5% solution thereof were tested following the method described in Acta Chirurg. Scand. 116, 351 (1958). The test animals were mice.
The concentration at which the activity amounted to 50% (EC50) was determined for the test compounds and for Lidocaine (2-diethylamino-2',6'-acetoxy-xylidide) used for comparison. In order to make possible a direct comparison of the test compounds with Lidocaine also the LD50 /EC50 -values are given in Table II.

CCN(CC)CC(=O)Nc1c(C)cccc1C [Lidocaine, 2-diethylamino-2',6'-acetoxy-xylidide, reference compound]
LD50/EC50: 1120
